From publication PMC5704011
Results are given in words; binding and its absence hold for the method and conditions named.

Chains of the proteins cited; added tags and fusions are not shown. Residues count along the entry.
UniProt P35916, residues 25-775: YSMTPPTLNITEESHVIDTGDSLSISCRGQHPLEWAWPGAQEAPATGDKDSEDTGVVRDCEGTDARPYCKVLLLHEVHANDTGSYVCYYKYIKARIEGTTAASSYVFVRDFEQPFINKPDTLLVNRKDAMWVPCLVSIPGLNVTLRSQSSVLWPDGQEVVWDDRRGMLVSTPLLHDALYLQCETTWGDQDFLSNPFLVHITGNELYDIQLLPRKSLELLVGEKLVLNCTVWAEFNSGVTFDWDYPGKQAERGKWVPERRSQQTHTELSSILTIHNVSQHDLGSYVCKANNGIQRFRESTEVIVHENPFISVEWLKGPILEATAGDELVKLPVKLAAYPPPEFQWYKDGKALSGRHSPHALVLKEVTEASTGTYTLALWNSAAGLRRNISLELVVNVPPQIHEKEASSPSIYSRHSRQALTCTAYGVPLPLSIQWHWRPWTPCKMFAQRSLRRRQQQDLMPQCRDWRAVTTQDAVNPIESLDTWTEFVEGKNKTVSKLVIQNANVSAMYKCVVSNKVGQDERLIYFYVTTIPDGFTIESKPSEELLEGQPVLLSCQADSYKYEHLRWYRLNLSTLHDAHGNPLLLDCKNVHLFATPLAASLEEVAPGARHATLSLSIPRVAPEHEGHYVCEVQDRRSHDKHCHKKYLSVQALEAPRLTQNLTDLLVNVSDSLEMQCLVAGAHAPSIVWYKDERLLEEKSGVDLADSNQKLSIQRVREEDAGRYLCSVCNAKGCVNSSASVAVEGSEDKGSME
UniProt P17948, residues 27-758: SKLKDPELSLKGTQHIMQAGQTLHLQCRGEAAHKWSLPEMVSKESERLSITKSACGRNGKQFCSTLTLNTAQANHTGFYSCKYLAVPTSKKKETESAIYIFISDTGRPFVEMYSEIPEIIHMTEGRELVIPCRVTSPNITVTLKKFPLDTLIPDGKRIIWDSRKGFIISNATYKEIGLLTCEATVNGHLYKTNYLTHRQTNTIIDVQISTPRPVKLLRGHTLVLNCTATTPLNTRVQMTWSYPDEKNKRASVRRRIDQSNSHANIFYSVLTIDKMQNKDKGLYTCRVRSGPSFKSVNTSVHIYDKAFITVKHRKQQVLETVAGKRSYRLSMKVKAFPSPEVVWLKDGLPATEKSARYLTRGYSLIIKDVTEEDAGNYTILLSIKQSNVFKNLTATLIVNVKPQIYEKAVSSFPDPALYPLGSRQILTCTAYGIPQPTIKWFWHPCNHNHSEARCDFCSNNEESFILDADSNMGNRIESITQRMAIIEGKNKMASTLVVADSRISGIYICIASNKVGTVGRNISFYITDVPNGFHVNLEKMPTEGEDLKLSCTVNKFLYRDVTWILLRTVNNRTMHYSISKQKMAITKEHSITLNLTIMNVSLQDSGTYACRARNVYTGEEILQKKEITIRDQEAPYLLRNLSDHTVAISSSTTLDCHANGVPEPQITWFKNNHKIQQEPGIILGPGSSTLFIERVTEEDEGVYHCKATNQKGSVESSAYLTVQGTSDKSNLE
UniProt P01127, residues 82-190: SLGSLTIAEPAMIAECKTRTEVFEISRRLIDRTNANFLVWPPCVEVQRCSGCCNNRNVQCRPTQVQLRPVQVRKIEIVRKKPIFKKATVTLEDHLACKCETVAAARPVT

Assays:
[1] = target: human recombinant VEGFR3 (human) (UniProt P35916); experiment: SPR; BIAcore 3000, 25 °C, CM5 chip; receptor immobilised by amine coupling (~200-500 R.U.); ligand injected at 40, 20 and 10 nM in HBS-EP pH 7.4 (10 mM HEPES, 3 mM EDTA, 150 mM NaCl, 0.005% TWEEN-20); angiopoietin-4 reference cell subtracted; global 1:1 Langmuir fit; χ^2-to-Rmax < 1.0 taken as a true interaction; both purified
VEGFR1 (Homo sapiens) [2] = target: VEGFR1 (Homo sapiens) (UniProt P17948); experiment: as above
[3] = target: human recombinant VEGFR3 (human) (UniProt P35916); experiment: SPR; BIAcore 3000, 25 °C, CM5 chip; receptor immobilised by amine coupling (~200-500 R.U.); ligand injected at 10, 20 and 40 nM, 30 uL/min, 10 min dissociation; HBS-EP pH 7.4 (10 mM HEPES, 3 mM EDTA, 150 mM NaCl, 0.005% TWEEN-20); angiopoietin-4 reference cell subtracted; global 1:1 Langmuir fit; χ2-to-Rmax > 1.0 or negative association curves taken as no true interaction; both purified
VEGFR1 (Homo sapiens) [4] = target: VEGFR1 (Homo sapiens) (UniProt P17948); experiment: as above

| Substance | binding [1] | binding (VEGFR1 (Homo sapiens) [2]) | binding [3] | binding (VEGFR1 (Homo sapiens) [4]) |
| --- | --- | --- | --- | --- |
| human recombinant PDGF-BB (from UniProt P01127 82-190) (ligand) | no binding (tested: 40 nM) | no binding (tested: 40 nM) | no binding (tested: 10, 20 and 40 nM tested) | no binding (tested: 10, 20 and 40 nM tested) |
| human recombinant PDGF-AB (from UniProt P04085 87-211; P01127 82-190) (ligand) | no binding (tested: 40 nM) | no binding (tested: 40 nM) | no binding (tested: 10, 20 and 40 nM tested) | no binding (tested: 10, 20 and 40 nM tested) |
| human recombinant PDGF-AA (from UniProt P04085 87-211) (ligand) | no binding (tested: 40 nM) | no binding (tested: 40 nM) | no binding (tested: 10, 20 and 40 nM tested) | no binding (tested: 10, 20 and 40 nM tested) |
